Results are given in words; binding and its absence hold for the method and conditions named. Binding seen in cells or lysates may run through a third protein. Some entries that bind do so weakly or less than the wild type.
Target: S-SCAM (rat (endogenous in primary cortical neurons)) (UniProt O88382)
Assay: co-IP; S-SCAM immunoprecipitated from lysates of untreated or 1 h NMDA-treated (100 µM NMDA, 10 µM glycine) rat cortical neurons; immunocomplexes analysed by immunoblot

Protein sequences, listed by entry. Tags and fused reporters are not part of them.
UniProt O88382: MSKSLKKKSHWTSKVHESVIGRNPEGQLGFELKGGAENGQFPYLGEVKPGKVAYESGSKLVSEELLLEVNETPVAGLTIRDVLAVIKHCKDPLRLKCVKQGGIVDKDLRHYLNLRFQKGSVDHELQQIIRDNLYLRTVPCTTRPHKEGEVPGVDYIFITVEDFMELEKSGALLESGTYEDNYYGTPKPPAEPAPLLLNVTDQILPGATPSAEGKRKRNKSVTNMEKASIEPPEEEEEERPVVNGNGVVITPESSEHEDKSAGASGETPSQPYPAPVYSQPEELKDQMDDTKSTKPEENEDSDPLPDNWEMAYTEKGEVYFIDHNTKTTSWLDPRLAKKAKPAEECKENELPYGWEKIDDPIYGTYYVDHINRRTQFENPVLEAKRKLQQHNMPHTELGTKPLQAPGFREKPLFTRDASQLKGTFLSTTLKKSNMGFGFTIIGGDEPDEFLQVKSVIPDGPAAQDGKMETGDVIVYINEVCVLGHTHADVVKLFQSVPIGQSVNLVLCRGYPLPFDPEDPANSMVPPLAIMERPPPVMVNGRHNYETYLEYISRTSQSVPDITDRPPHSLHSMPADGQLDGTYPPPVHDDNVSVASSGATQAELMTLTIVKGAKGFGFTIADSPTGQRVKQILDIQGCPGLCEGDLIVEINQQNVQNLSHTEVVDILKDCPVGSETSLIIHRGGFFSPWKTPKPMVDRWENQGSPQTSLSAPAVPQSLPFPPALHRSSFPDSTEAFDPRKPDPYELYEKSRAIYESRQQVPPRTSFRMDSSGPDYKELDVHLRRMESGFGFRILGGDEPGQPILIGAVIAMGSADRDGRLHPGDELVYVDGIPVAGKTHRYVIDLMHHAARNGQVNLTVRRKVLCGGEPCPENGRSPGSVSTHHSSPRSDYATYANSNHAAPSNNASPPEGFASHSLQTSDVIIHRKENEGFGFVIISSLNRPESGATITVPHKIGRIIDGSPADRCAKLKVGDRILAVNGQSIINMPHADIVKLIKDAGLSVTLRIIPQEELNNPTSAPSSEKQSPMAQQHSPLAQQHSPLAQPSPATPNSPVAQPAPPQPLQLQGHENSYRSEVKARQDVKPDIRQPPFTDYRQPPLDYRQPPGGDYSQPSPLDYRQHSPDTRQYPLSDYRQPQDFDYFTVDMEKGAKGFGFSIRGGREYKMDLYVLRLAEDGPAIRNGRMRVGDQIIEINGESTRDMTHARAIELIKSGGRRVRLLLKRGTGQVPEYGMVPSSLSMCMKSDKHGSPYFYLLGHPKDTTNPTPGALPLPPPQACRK
UniProt Q9EQG6: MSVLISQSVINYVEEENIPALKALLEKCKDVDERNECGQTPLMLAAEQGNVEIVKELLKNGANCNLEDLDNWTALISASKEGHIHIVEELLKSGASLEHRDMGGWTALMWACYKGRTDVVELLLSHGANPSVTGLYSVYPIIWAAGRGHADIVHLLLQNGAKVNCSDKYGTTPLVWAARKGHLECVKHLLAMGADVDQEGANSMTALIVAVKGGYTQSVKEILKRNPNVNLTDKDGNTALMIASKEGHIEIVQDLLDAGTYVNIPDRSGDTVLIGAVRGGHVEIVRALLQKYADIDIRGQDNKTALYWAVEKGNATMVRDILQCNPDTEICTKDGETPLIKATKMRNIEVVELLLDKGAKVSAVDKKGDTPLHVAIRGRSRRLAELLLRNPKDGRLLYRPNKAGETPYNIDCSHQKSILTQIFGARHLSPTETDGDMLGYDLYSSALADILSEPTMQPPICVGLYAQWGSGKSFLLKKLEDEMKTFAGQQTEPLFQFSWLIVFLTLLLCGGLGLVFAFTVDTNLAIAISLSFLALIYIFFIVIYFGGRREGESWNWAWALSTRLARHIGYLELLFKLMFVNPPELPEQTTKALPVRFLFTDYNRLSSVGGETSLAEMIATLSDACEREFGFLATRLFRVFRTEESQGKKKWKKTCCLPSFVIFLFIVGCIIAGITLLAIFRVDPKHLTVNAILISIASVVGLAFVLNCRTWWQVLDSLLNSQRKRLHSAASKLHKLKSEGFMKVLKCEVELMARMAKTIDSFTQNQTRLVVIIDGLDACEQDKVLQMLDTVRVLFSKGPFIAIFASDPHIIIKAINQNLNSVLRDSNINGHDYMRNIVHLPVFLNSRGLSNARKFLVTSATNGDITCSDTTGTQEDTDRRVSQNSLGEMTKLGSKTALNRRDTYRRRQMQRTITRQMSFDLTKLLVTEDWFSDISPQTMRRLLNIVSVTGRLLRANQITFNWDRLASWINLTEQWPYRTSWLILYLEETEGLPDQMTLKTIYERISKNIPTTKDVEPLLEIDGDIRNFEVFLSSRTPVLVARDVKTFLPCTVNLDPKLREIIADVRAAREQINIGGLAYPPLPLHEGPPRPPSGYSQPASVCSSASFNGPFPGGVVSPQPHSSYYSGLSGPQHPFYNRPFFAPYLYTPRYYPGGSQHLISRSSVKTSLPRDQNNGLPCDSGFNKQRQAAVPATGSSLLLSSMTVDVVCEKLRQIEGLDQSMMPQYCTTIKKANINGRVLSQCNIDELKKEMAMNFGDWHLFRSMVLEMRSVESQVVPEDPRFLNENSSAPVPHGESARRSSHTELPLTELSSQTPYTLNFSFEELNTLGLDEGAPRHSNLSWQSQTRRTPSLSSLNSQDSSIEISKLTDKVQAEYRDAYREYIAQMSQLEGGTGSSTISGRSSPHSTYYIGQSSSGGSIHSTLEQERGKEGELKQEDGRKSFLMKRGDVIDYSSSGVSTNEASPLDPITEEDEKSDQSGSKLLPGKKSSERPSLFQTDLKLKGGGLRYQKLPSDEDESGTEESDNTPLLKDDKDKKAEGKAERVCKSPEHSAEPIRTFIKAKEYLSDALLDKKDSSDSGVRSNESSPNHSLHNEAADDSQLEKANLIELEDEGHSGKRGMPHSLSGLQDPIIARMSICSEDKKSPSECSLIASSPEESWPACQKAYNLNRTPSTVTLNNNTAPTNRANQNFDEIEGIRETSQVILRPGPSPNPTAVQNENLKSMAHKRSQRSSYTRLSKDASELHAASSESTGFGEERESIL

Molecule	binding
Kinase D-interacting substrate of 220 kDa (Kidins220) (from UniProt Q9EQG6 1-1762)	binds
PDZ-GEF1 (protein, UniProt F1M386 1-1496) MKPLAAPANHGVLGQQEKQSLPADFTKLHLTDSLHPQVTHVSSSHSGCSITSDSGSSSLSDIYQATESEAGDMDLSGLPETAVDSEDDDDEEDIERASDPLMSRDIVRDCLEKDPIDRTDDDIEQLLEFMHQLPAFANMTMSVRRELCAVMVFAVVERAGTIVLNDGEELDSWSVILNGSVEVTYPDGKAEILCMGNSFGVSPTMDKEYMKGVMRTKVDDCQFVCIAQQDYCRILNQVEKNMQKVEEEGEIVMVKEHRELDRTGTRKGHIVIKGTSERLTMHLVEEHSVVDPTFIEDFLLTYRTFLSSPMEVGKKLLEWFNDPSLRDKVTRVVLLWVNNHFNDFEGDPAMTRFLEEFENNLEREKMGGHLRLLNIACAAKAKRRSMTLTKPSREAPLPFILLGGSEKGFGIFVDSVDSSSKATEAGLKRGDQILEVNGQNFENIQLSKAMEILRNNTHLSITVKTNLFVFKELLTRLSEEKRNGAPHLPKIGDIKKASRYSIPDLAVDVEQVIGLEKVNKKSKANTVGGRNKLKKILDKTRISILPQKPYNDIGIGQSQDDSIVGLRQTKHIPAALPVSGTLSSSNPDLLQSHHRILDFSTTPDLPDQVLRVFKADQQSRYIMISKDTTAKEVVIQAIREFAVTATPEQYSLCEVSVTPEGVIKQRRLPDQLSKLADRIQLSGRYYLKNNMETETLCSDEDAQELLRESQISLLQLSTVEVATQLSMRNFELFRNIEPTEYIDDLFKLKSKTSCANLKKFEEVINQETFWVASEILRETNQLKRMKIIKHFIKIALHCRECKNFNSMFAIISGLNLAPVARLRTTWEKLPNKYEKLFQDLQDLFDPSRNMAKYRNVLSGQNLQPPVIPLFPVIKKDLTFLHEGNDSKVDGLVNFEKLRMIAKEIRHVGRMASVNMDPALMFRTRKKKWRSLGSLSQGSANATVLDVAQTGGHKKRVRRSSFLNAKKLYEDAQMARKVKQYLSNLELEMDEESLQTLSLQCEPATSTLPKNPADRKPVKSETSPVAPRAGPQQKAQPQQPLAPPQPSHKVSQGLQVPAVSLYPSRKKVPVKDLPPFGINSPQALKKILSLSEEGSLERHRKQAEDTISNASSQLSSPPTSPQSSPRKGYALALSGTVDNFSDSGHSEISSRSSIVSNSSFDSVPVSLHDERRQRHSVSIVESNLGVGRMERRTLMEPDQYSLGSYAPVSESRGLYAAATVISSPSTEELSHDQGDRASLDAADSGRGSWTSCSSGSHDNIQTIQHQRSWETLPFGHTHFDYSGDATGIWASGGHMDQIMFSDHSTKYNRQNQSRESLEQAQSRASWASSTGYWGEDSEGDTGTIKRRGGKDVSTEAESSSMVPVTTEEAKPVPMPAHIAVTPSTTKGLIARKEGRYREPPPTPPGYVGIPIADFPEGPCHPARKPPDYNVALQRSRMVARPTEAPAPGQTPPAATASRPGSKPQWHKPSDADPRLAPFQPQGFAGAEEDEDEQVSAV	binds
